## Primary screen of a compound library

Amino acid sequences for entries named in this document (tags omitted). Residues count along the entry.
UniProt A4I591, 1-473: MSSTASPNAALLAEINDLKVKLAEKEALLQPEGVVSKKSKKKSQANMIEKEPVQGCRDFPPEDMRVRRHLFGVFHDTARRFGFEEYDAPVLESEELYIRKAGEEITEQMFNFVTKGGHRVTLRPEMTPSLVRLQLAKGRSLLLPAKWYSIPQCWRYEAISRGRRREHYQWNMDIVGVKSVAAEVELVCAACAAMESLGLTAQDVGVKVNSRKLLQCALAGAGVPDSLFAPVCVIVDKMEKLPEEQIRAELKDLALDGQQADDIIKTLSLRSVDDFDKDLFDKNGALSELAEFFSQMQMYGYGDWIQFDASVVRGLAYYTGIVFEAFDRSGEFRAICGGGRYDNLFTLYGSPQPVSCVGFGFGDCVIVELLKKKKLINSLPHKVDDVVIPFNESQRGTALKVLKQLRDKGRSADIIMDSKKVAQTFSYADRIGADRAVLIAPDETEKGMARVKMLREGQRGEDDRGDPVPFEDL
UniProt P9WNZ1, whole entry: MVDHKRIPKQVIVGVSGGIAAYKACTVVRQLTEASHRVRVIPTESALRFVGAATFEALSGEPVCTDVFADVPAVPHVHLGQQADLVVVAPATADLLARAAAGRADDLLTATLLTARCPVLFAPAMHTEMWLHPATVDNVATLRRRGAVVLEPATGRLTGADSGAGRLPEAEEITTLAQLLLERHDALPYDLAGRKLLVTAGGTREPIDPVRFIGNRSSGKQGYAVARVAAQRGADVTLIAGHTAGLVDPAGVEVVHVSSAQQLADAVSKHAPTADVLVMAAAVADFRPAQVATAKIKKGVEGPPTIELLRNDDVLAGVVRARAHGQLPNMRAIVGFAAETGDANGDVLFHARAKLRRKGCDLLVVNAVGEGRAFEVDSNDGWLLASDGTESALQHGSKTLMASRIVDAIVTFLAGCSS
UniProt P9WFT3, whole entry: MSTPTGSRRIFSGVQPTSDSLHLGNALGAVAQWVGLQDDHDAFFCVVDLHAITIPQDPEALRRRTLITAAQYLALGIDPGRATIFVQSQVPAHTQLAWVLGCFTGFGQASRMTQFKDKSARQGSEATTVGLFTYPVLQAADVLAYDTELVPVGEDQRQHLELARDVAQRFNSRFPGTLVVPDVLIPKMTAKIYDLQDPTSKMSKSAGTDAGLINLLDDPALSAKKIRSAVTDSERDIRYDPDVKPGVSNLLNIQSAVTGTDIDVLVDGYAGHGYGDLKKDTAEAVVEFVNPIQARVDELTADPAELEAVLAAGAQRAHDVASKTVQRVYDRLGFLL

LiHisRS: 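Enzyme assay of histidyl-tRNA synthetase; the read-out is not stated. Target: Histidine-tRNA ligase, Leishmania infantum (UniProt A4I591). Concentration: 30 µM. The record gives no direction; compounds that gave an IC50 in retests scored well above the rest, so higher reads as stronger inhibition. The assay is labelled LdHisRS but filed under L. infantum. Size under these conditions: about 69,000 compounds, about 410 of them at 50% or above in at least one test.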
CoaBC: 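Enzyme assay of CoaBC with a phosphate dye (Biomol Green) read at 650 nm. Target: Coenzyme A biosynthesis protein CoaBC, Mycobacterium tuberculosis (UniProt P9WNZ1). Tested at 30 µM. Higher reads as stronger inhibition, judged from the few compounds that gave an IC50. Most strong results did not repeat in a second test. About 67,000 compounds were tested under these conditions; 0.06% (about 40) showed 50% or more at least once.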
MtTrpRS: 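Tryptophan-tRNA ligase, Mycobacterium tuberculosis (UniProt P9WFT3). Enzyme assay of tryptophanyl-tRNA synthetase; the read-out is not stated. Tested at 10 µM. Higher most likely means stronger inhibition; the record gives no direction and few retests gave an IC50. Of about 65,000 compounds tested this way, about 64 (0.098%) reached 50% or more in at least one test.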

Results are given as percent effect.
How 0% and 100% were set is not recorded. Most values in the screen are low, and negative values occur.
This is an unselected part of the compounds tested.
A dash means the value is not listed here; it may have been measured.

structure,LiHisRS,CoaBC,MtTrpRS
Cc1cc(CN2CCC(CNC(=O)CN3CCCCCC3)C2)[nH]n1 (stereo not drawn),27.63%,-17.29%,6.202%
O=C(c1cnccn1)N1CCN(c2ccnc3ccsc23)CC1,11.29%,1.222%,-2.741%
CCS(=O)(=O)N1CCN(C)c2ncccc2C1,3.774%,-1.22%,-
CCc1ccc(CN2C[C@H](OCC(=O)N(C)C)[C@H]3COC[C@H]32)o1,13.21%,1.463%,-
NC(=O)CN1C[C@@H](c2ccccc2F)[C@@]2(CCCCC(=O)N2)C1,8.392%,3.148%,-3.068%
COc1cccc2ccn(CC(=O)NCC(C)C)c12,-5.263%,0.2525%,-3.992%
CN(C)C(=O)[C@H]1C[C@H]2OCC[C@H]2N(Cc2ccccn2)C1,11.76%,1.523%,-6.337%
CC(C)c1nc(O)c2nnn(C[C@H]3CCCN(Cc4cccs4)C3)c2n1,2.817%,-8.314%,6.454%
CN(c1nc(Cn2cnccc2=O)cs1)C1CC1,34.33%,6.024%,-6.46%
Cc1cnn(-c2ccc(C(=O)N3CCCC(n4ccnc4C)C3)cc2)c1 (stereo not drawn),8.036%,3.704%,-2.715%
CN(Cc1ccc([S+](C)[O-])cc1)c1ccc(C(F)(F)F)cn1 (stereo not drawn),14.4%,-3.902%,-0.7524%
CC(NCc1ccc(-c2ccc(F)cc2)o1)c1nnc2n1CCC2 (stereo not drawn),30.3%,4.637%,2.422%
Cc1nc(CC(=O)N2CCCN(c3ccc(F)cc3)CC2)cs1,16.98%,-3.158%,3.462%
Cc1ccc(C)c(OCC(=O)NC2CCN(c3ccccn3)CC2)c1,19.1%,1.823%,-0.89%
O=C(NC1CCc2nccn2C1)c1ccc(NC2CC2)nc1 (stereo not drawn),8.036%,5.952%,-1.398%
CCCS(=O)(=O)NCc1nc(C)cc(N2CCCC2)n1,12%,2.982%,-3.485%
CC(C)Oc1ccc(CN)c(C(F)(F)F)c1,6.195%,-3.505%,-0.3285%
CCn1ncc(S(=O)(=O)NC(C)c2cc(OC)ccc2OC)c1C (stereo not drawn),3.448%,-1.119%,3.67%
COCCN(C)CCN1CC2(CCN(C3CCSC3)CC2)OC1=O (stereo not drawn),16.8%,-3.498%,5.87%
CNc1cccc(C2CCCN(C(=O)c3ccn(C)n3)C2)n1 (stereo not drawn),20.62%,2.663%,-
O=C(CCn1cncn1)NCC(c1ccco1)N1CCCC1 (stereo not drawn),15.04%,-0.2611%,-6.27%
CC(C1CCN(Cc2ccccc2OC(F)F)CC1)N1CCOCC1 (stereo not drawn),18.75%,-4.989%,-2.437%
CC(O)CN1CCN(C(=O)c2cnn(-c3ccccc3F)c2)CC1 (stereo not drawn),18.45%,8.036%,-2.664%
COc1nc(C)ccc1CNC(=O)NC(c1ncc(C)s1)C1CC1 (stereo not drawn),9.326%,-3.185%,-2.556%
CCN(Cc1noc(C)n1)C(=O)C(c1cccc(C)c1)N(C)C (stereo not drawn),13.43%,6.827%,13.01%
Cc1cnn(C2CN(CC(=O)NCCc3ccccc3)C2)c1,22.73%,9.182%,4.581%
CC(=O)c1cc(CC(=O)N2CCN(S(=O)(=O)c3ccccc3)CC2)cs1,5.882%,0.8147%,1.685%
Cn1cccc1CN(C(=O)Cc1cccs1)C1CC1,14.67%,5.368%,1.519%
O=C(c1cccs1)N1CCCn2cnc(COCC3CC3)c2C1,13%,3.585%,-1.592%
COc1ccc(CCCN(C)C(=O)c2cc(Cl)c[nH]2)cc1OC,4.145%,4.713%,1.943%
CCc1nnsc1C(=O)N1CCOC(c2nc(C)n[nH]2)C1 (stereo not drawn),21.62%,7.05%,0.09747%
CC(CO)NCc1csc2c1CCCC2 (stereo not drawn),16.44%,7.579%,-1.49%
Cn1cc(CN2CCCC23CCN(Cc2nccn2C)CC3)cn1,6.452%,0.3699%,-4.505%
COc1ccccc1OCC(=O)NS(=O)(=O)c1ccccc1Br,6.25%,-2.899%,4.769%
CC1(C)CNC(=O)c2nc(-c3n[nH]c(=O)[nH]3)[nH]c2C1,8.571%,1.978%,-1.475%
Cn1ncc2c(=O)[nH]c(CN3CCCC3CC(C)(C)C)nc21 (stereo not drawn),15.18%,4.981%,-6.383%
Cc1cnn(CC2CN(CC(=O)N3CCc4ccccc43)CCO2)c1 (stereo not drawn),17.57%,2.999%,0.7601%
CCN1C[C@H]2CCN(Cc3ccncc3)C(=O)[C@@H]2C1,3.846%,3.475%,-4.651%
CCc1nnc(C2Cc3ccccc3CN2Cc2nc(C)no2)o1 (stereo not drawn),15.04%,3.394%,-5.643%
CCNCCc1nc2cc(F)ccc2[nH]1,25.81%,2.091%,-0.4968%
CNS(=O)(=O)CCCn1nnc(-c2ccc(F)c(C)c2)n1,14.52%,0.1212%,0.1347%
CCc1cc(NC(=O)C2CCCN(C(=O)NCC(C)C)C2)[nH]n1 (stereo not drawn),15.22%,1.937%,-0.4428%
CC(C)Cc1cc(C(=O)NCc2nnc[nH]2)[nH]n1,2.857%,3.644%,-6.886%
Cc1csc(C(C#N)C(=O)NCc2cccnc2)n1 (stereo not drawn),12.82%,7.983%,-3.774%

Some entries from above, unchanged:

structure,LiHisRS,CoaBC,MtTrpRS
Cc1cc(CN2CCC(CNC(=O)CN3CCCCCC3)C2)[nH]n1 (stereo not drawn),27.63%,-17.29%,6.202%
O=C(c1cccs1)N1CCCn2cnc(COCC3CC3)c2C1,13%,3.585%,-1.592%
O=C(CCn1cncn1)NCC(c1ccco1)N1CCCC1 (stereo not drawn),15.04%,-0.2611%,-6.27%
Cn1cccc1CN(C(=O)Cc1cccs1)C1CC1,14.67%,5.368%,1.519%
COc1nc(C)ccc1CNC(=O)NC(c1ncc(C)s1)C1CC1 (stereo not drawn),9.326%,-3.185%,-2.556%

Measurements from “University of Dundee, Small-Polar-MMV Screening Library” (2021), ChEMBL document CHEMBL3988442.